# Laboratory results published in the supplement of paper PMC8728848.
# The list shows a part of the results.
# How the values were obtained:
# Test in all cases: glycan array binding signal (z-score within array); higher = stronger binding
# Conditions in all cases: glycan notation: IUPAC condensed, linker removed
# [1] = biological target: Gal(a1-3)Gal(b1-4)GlcNAc
# Outline: (§1)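 Glycan array data were curated from 3228 arrays in the Consortium for Functional Glycomics database and kept only where the protein sequence was available. Glycan names were converted to IUPAC-condensed notation, and columns mapping to the same glycan were averaged. The binding signal is a within-array Z-score, averaged across arrays of the same protein sequence at different concentrations or buffers and across linkers. Negative Z-scores can be read as non-binding.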
# [2] = biological target: Gal(a1-3)Gal(b1-4)GlcNAc(b1-3)GalNAc
# Outline: as §1
# [3] = biological target: Gal(a1-3)Gal(b1-4)[Fuc(a1-3)]GlcNAc
# Outline: as §1
# [4] = biological target: Gal(a1-3)Gal(b1-4)[Fuc(a1-3)]GlcNAc(b1-2)Man(a1-3)[Gal(a1-3)Gal(b1-4)[Fuc(a1-3)]GlcNAc(b1-2)Man(a1-6)]Man(b1-4)GlcNAc(b1-4)GlcNAc
# Outline: as §1
# [5] = biological target: Gal(a1-3)GalNAc
# Outline: as §1
# [6] = biological target: Gal(a1-3)[Gal(a1-4)]Gal(b1-4)GlcNAc
# Outline: as §1
# [7] = biological target: Gal(a1-4)Gal(b1-3)GlcNAc(b1-2)Man(a1-3)[Gal(a1-4)Gal(b1-3)GlcNAc(b1-2)Man(a1-6)]Man(b1-4)GlcNAc(b1-4)GlcNAc
# Outline: as §1
# [8] = biological target: Gal(a1-4)Gal(b1-4)Glc
# Outline: as §1
# [9] = biological target: Gal(a1-4)Gal(b1-4)GlcNAc
# Outline: as §1
# [10] = biological target: Gal(a1-4)Gal(b1-4)GlcNAc(b1-2)Man(a1-3)[Gal(a1-4)Gal(b1-4)GlcNAc(b1-2)Man(a1-6)]Man(b1-4)GlcNAc(b1-4)GlcNAc
# Outline: as §1
# [11] = biological target: Gal(a1-4)Gal(b1-4)GlcNAc(b1-3)Gal(b1-4)Glc
# Outline: as §1
# [12] = biological target: Gal(a1-4)GlcNAc
# Outline: as §1
# [13] = biological target: Gal(a1-6)Glc
# Outline: as §1
# [14] = biological target: Gal(b1-2)Gal
# Outline: as §1
# [15] = biological target: Gal(b1-3)Gal
# Outline: as §1
# [16] = biological target: Gal(b1-3)Gal(b1-4)GlcNAc
# Outline: as §1
# [17] = biological target: Gal(b1-3)Gal(b1-4)GlcNAc(b1-2)Man(a1-3)[Gal(b1-3)Gal(b1-4)GlcNAc(b1-2)Man(a1-6)]Man(b1-4)GlcNAc(b1-4)GlcNAc
# Outline: as §1
# [18] = biological target: Gal(b1-3)GalNAc
# Outline: as §1
# [19] = biological target: Gal(b1-3)GalNAc(a1-3)[Fuc(a1-2)]Gal(b1-4)Glc
# Outline: as §1
# [20] = biological target: Gal(b1-3)GalNAc(a1-3)[Fuc(a1-2)]Gal(b1-4)GlcNAc
# Outline: as §1
# [21] = biological target: Gal(b1-3)GalNAc(b1-3)Gal(a1-4)Gal(b1-4)Glc
# Outline: as §1
# [22] = biological target: Gal(b1-3)GalNAc(b1-4)Gal(b1-4)Glc
# Outline: as §1
# [23] = biological target: Gal(b1-3)GalNAc(b1-4)[Neu5Ac(a2-3)]Gal(b1-4)Glc
# Outline: as §1
# [24] = biological target: Gal(b1-3)GlcNAc
# Outline: as §1
# [25] = biological target: Gal(b1-3)GlcNAc(a1-6)Gal(b1-4)GlcNAc
# Outline: as §1
# [26] = biological target: Gal(b1-3)GlcNAc(b1-2)Man(a1-3)[Gal(b1-3)GlcNAc(b1-2)Man(a1-6)]Man(b1-4)GlcNAc(b1-4)GlcNAc
# Outline: as §1
# [27] = biological target: Gal(b1-3)GlcNAc(b1-2)Man(a1-3)[Gal(b1-3)GlcNAc(b1-2)Man(a1-6)]Man(b1-4)GlcNAc(b1-4)[Fuc(a1-6)]GlcNAc
# Outline: as §1
# [28] = biological target: Gal(b1-3)GlcNAc(b1-3)Gal(b1-3)GlcNAc
# Outline: as §1
# [29] = biological target: Gal(b1-3)GlcNAc(b1-3)Gal(b1-4)Glc
# Outline: as §1
# [30] = biological target: Gal(b1-3)GlcNAc(b1-3)Gal(b1-4)GlcNAc
# Outline: as §1
# [31] = biological target: Gal(b1-3)GlcNAc(b1-3)Gal(b1-4)GlcNAc(b1-6)[Gal(b1-3)GlcNAc(b1-3)]Gal(b1-4)Glc
# Outline: as §1
# [32] = biological target: Gal(b1-3)GlcNAc(b1-3)Gal(b1-4)[Fuc(a1-3)]GlcNAc(b1-6)[Gal(b1-3)GlcNAc(b1-3)]Gal(b1-4)Glc
# Outline: as §1
# [33] = biological target: Gal(b1-3)GlcNAc(b1-3)GalNAc
# Outline: as §1
# [34] = biological target: Gal(b1-3)GlcNAc(b1-6)Gal(b1-4)GlcNAc
# Outline: as §1
# [35] = biological target: Gal(b1-3)[Fuc(a1-4)]GlcNAc
# Outline: as §1
# [36] = biological target: Gal(b1-3)[Fuc(a1-4)]GlcNAc(b1-2)Man(a1-3)[Gal(b1-3)[Fuc(a1-4)]GlcNAc(b1-2)Man(a1-6)]Man(b1-4)GlcNAc(b1-4)GlcNAc
# Outline: as §1
# [37] = biological target: Gal(b1-3)[Fuc(a1-4)]GlcNAc(b1-2)Man(a1-3)[Gal(b1-3)[Fuc(a1-4)]GlcNAc(b1-2)Man(a1-6)]Man(b1-4)GlcNAc(b1-4)[Fuc(a1-6)]GlcNAc
# Outline: as §1
# [38] = biological target: Gal(b1-3)[Fuc(a1-4)]GlcNAc(b1-3)Gal(b1-3)[Fuc(a1-4)]GlcNAc
# Outline: as §1
# [39] = biological target: Gal(b1-3)[Fuc(a1-4)]GlcNAc(b1-3)Gal(b1-4)GlcNAc
# Outline: as §1
# [40] = biological target: Gal(b1-3)[Fuc(a1-4)]GlcNAc(b1-3)Gal(b1-4)[Fuc(a1-3)]GlcNAc
# Outline: as §1
# [41] = biological target: Gal(b1-3)[GlcNAc(b1-6)]GalNAc
# Outline: as §1
# [42] = biological target: Gal(b1-3)[Neu5Ac(a2-6)]GalNAc
# Outline: as §1
# [43] = biological target: Gal(b1-3)[Neu5Ac(a2-6)]GlcNAc(b1-6)Gal(b1-4)Glc
# Outline: as §1
# [44] = biological target: Gal(b1-3)[Neu5Ac(b2-6)]GalNAc
# Outline: as §1
# [45] = biological target: Gal(b1-4)GalNAc(a1-3)[Fuc(a1-2)]Gal(b1-4)GlcNAc
# Outline: as §1
binder,measurement,setting,value
"SBD (Rhizopus oryzae), P07683 (protein) ASIPSSASVQLDSYNYDGSTFSGKIYVKNIAYSKKVTVVYADGSDNWNNNGNIIAASFSGPISGSNYEYWTFSASVKGIKEFYIKYEVSGKTYYDNNNSANYQVS",glycan array binding signal (z-score),[1],-0.133
same,glycan array binding signal (z-score),[2],-0.461
same,glycan array binding signal (z-score),[3],-0.057
same,glycan array binding signal (z-score),[4],0.477
same,glycan array binding signal (z-score),[5],-0.084
same,glycan array binding signal (z-score),[6],-0.422
same,glycan array binding signal (z-score),[7],1.95
same,glycan array binding signal (z-score),[8],-0.555
same,glycan array binding signal (z-score),[9],-0.215
same,glycan array binding signal (z-score),[10],2.59
same,glycan array binding signal (z-score),[11],0.2
same,glycan array binding signal (z-score),[12],-0.786
same,glycan array binding signal (z-score),[13],-0.205
same,glycan array binding signal (z-score),[14],-0.342
same,glycan array binding signal (z-score),[15],-0.182
same,glycan array binding signal (z-score),[16],-0.379
same,glycan array binding signal (z-score),[17],-0.074
same,glycan array binding signal (z-score),[18],-0.406
same,glycan array binding signal (z-score),[19],-0.303
same,glycan array binding signal (z-score),[20],0.031
same,glycan array binding signal (z-score),[21],0.074
same,glycan array binding signal (z-score),[22],0.23
same,glycan array binding signal (z-score),[23],0.048
same,glycan array binding signal (z-score),[24],0.042
same,glycan array binding signal (z-score),[25],0.838
same,glycan array binding signal (z-score),[26],0.227
same,glycan array binding signal (z-score),[27],0.027
same,glycan array binding signal (z-score),[28],-0.135
same,glycan array binding signal (z-score),[29],2.02
same,glycan array binding signal (z-score),[30],-0.041
same,glycan array binding signal (z-score),[31],-0.398
same,glycan array binding signal (z-score),[32],0.647
same,glycan array binding signal (z-score),[33],-0.953
same,glycan array binding signal (z-score),[34],0.287
same,glycan array binding signal (z-score),[35],-0.029
same,glycan array binding signal (z-score),[36],1.14
same,glycan array binding signal (z-score),[37],0.316
same,glycan array binding signal (z-score),[38],-0.484
same,glycan array binding signal (z-score),[39],0.328
same,glycan array binding signal (z-score),[40],0.121
same,glycan array binding signal (z-score),[41],-0.253
same,glycan array binding signal (z-score),[42],-0.432
same,glycan array binding signal (z-score),[43],1.24
same,glycan array binding signal (z-score),[44],-0.657
same,glycan array binding signal (z-score),[45],0.553

# A section of the results above, as a working copy:
binder,measurement,setting,value
"SBD (Rhizopus oryzae), P07683 (protein) ASIPSSASVQLDSYNYDGSTFSGKIYVKNIAYSKKVTVVYADGSDNWNNNGNIIAASFSGPISGSNYEYWTFSASVKGIKEFYIKYEVSGKTYYDNNNSANYQVS",glycan array binding signal (z-score),[16],-0.379
same,glycan array binding signal (z-score),[17],-0.074
